This note sets out measurements from doi:10.1101/2020.12.12.422504.

Amino acid sequences for entries named in this document (tags omitted). Residues count along the entry.
UniProt P42224, residues 710-750: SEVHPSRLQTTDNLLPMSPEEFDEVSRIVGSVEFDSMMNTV
UniProt P45481, residues 1764-1850: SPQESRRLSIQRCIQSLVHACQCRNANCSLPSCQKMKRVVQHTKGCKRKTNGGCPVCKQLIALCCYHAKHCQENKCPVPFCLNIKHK

No constants are given. Whether binding was seen depends on the method and setting. Some entries that bind do so weakly or less than the wild type.

In the assay the target is 6His-Gb1-STAT1 (710-750) (UniProt P42224). As to the kind of experiment: co-purification on Ni-NTA.

In the case of “TAZ2 domain of CBP, CBP (1764-1850) (from UniProt P45481 1764-1850) (domain or fragment)”, the binding entry is given as “binds”.
